Measured values: article PMC11067372, “Evaluation of the antiplasmodial efficacy of synthetic 2,5-diphenyloxazole analogs of compounds naturally derived from Oxytropis lanata” (International Journal for Parasitology: Drugs and Drug …, 2024)

Legend:
P. falciparum 3D7 = assay: In vitro inhibition of P. falciparum 3D7 (SYBR Green I-based fluorescence assay); type: cell-based, Plasmodium falciparum; details: selectivity index, CC50 HFFs relative to IC50 P. falciparum 3D7
P. falciparum K1 = assay: In vitro inhibition of P. falciparum K1 (SYBR Green I-based fluorescence assay); type: cell-based, Plasmodium falciparum; details: for Resistance index: ratio between the IC50 values of P. falciparum K1 and 3D7; for SI K1: selectivity index, CC50 HFFs relative to IC50 P. falciparum K1
Experimental: The cultures were maintained in an incubator under specific conditions: 37 °C under 5% CO2 and 5% O2.
The D-sorbitol method (CAS: 50-70-4, Wako, Osaka, Japan) was employed to synchronize parasites, resulting in the attainment of ≥90% ring-stage parasites. These synchronized parasites were then utilized for the experiments within a 2-h window. The assay was performed as follows. First, 50 μL of synchronized parasites with 0.5% parasitemia and 2% hematocrit were added to individual wells of a 96-well plate. Then, 50 μL of the test compounds was introduced to each well. […] Wells containing only test compounds and erythrocytes were included for background correction. […] After the designated incubation time, 100 μL of lysis buffer containing 0.02% (v/v) SYBR Green I was added to each well, the contents of the well were mixed by pipetting, and the plate was incubated in the dark at room temperature for 2 h. […] This assay was repeated four times at each concentration, and the resulting inhibitory values represent the average from three independent trials.
The IC50 or CC50 values were determined from three independent experiments by plotting the logarithmic concentration of the compound against the percent parasite inhibition or cell growth inhibition, respectively. Nonlinear regression analysis was conducted using GraphPad Prism 10 (GraphPad Software, Inc., La Jolla, CA, USA). Comparisons between groups were evaluated using either one-way or two-way ANOVA followed by Tukey's or Fisher's multiple comparisons tests. […] The meaning of each symbol is specified in the corresponding figure legend alongside the name of the employed test.

Compound	SI 3D7 (P. falciparum 3D7)	Resistance index (P. falciparum K1)	SI K1 (P. falciparum K1)
Oc1ccccc1-c1cnc(-c2cccc(O)c2O)o1 [Compound 1, 2-(2′,3′-dihydroxyphenyl)-5-(2″-hydroxyphenyl)oxazole]	5.40	0.56	9.66
CC(=O)Oc1ccccc1-c1cnc(-c2cccc(OC(C)=O)c2OC(C)=O)o1 [Compound 3]	13.61	0.51	26.69
Oc1ccc(O)c(-c2ncc(-c3ccccc3O)o2)c1 [Compound 4, 2-(2′,5′-dihydroxyphenyl)-5-(2″-hydroxyphenyl)oxazole]	8.93	0.60	14.81
Oc1ccc(O)c(-c2cnc(-c3ccccc3)o2)c1 [Compound 7, 2-phenyl-5-(2″,5″-hydroxyphenyl)oxazole]	14.06	0.43	32.89
CC(=O)Oc1ccc(OC(C)=O)c(-c2cnc(-c3ccccc3)o2)c1 [Compound 9]	16.79	0.38	44.47
Oc1ccc(O)c(-c2cnc(-c3cc(O)ccc3O)o2)c1 [Compound 10, 2-(2′,5′-dihydroxyphenyl)-5-(2″,5″-dihydroxyphenyl)oxazole]	3.13	0.39	8.00
CC(=O)Oc1ccc(OC(C)=O)c(-c2cnc(-c3cc(OC(C)=O)ccc3OC(C)=O)o2)c1 [Compound 12]	6.63	0.46	14.43
COc1cccc(-c2ncc(-c3ccccc3O)o2)c1OC [Compound 31, 2-(2′,3′-dimethoxyphenyl)-5-(2″-hydroxyphenyl)oxazole]	> 40.20	0.32	> 126.58
COc1cccc(-c2ncc(-c3ccccc3OCc3ccccc3)o2)c1OC [Compound 32, 2-(2′,3′-dimethoxyphenyl)-5-(2″-benzyloxyphenyl)oxazole]	> 41.27	0.70	> 59.06
Oc1ccccc1-c1cnc(-c2cccc(O)c2O)s1 [Compound 40]	11.71	0.44	26.60
Oc1ccccc1-c1nnc(-c2cccc(O)c2O)o1 [Compound 42]	5.51	0.65	8.48
Oc1ccccc1-c1nnc(-c2cccc(O)c2O)s1 [Compound 44]	25.01	0.61	40.96
Oc1ccccc1-c1coc(-c2cccc(O)c2O)n1 [Compound 47]	15.33	0.68	22.68
